# According to PubChem BioAssay AID504327 (National Center for Advancing Translational Sciences (NCATS), 2011):
# The chains behind the UniProt entries cited, without tags or fusion partners.
# UniProt Q92830, whole entry, looked up: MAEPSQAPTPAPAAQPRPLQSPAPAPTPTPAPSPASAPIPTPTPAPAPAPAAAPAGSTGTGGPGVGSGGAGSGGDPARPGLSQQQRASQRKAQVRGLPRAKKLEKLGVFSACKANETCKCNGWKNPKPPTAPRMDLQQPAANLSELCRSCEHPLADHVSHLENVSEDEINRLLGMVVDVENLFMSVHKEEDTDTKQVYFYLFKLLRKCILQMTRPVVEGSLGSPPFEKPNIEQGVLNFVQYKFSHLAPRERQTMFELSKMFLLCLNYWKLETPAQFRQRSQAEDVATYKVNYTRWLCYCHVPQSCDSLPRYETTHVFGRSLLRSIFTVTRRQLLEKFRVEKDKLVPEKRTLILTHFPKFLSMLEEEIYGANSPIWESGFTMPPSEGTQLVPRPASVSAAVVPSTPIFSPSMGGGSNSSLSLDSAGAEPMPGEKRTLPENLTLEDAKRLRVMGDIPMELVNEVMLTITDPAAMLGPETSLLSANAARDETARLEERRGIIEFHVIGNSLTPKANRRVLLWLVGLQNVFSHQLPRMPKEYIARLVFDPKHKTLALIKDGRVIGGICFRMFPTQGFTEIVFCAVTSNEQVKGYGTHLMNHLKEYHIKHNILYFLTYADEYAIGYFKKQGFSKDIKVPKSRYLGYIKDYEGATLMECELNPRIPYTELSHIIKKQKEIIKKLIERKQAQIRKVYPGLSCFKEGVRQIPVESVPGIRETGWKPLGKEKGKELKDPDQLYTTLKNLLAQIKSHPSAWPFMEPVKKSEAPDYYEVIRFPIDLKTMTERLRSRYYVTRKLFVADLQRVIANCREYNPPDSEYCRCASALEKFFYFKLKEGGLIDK
# Screen size: about 390,000 compounds; about 820 (0.21%) were called active. This list was built around the results that the source calls inconclusive (neither active nor inactive); the mix of calls is not that of the screen. Calls follow the shape of the dose curve; as a rule, active = well fitted inhibition curve with a large enough effect; inconclusive = small, poorly fitted or top-dose-only effect, or another doubt; inactive = no such curve, though single readings can be large or run the other way. Potencies of inconclusive entries are doubtful fits and often do not repeat.
# Molecular target: Histone acetyltransferase KAT2A (Homo sapiens) (UniProt Q92830)
# Experiment: qHTS Assay for Inhibitors of GCN5L2
# Settings: GCN5L2 HAT assay, ThioGlo1 CoA-SH fluorescence; activity change, negative = inhibition: at 58.9 µM (top of the series) unless noted
# In short: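 qHTS, 1536-well. 20nM enzyme, pH 7.5 HEPES/EDTA/Tween-20 buffer; 15 min compound preinc., RT. Start: 75uM H3(1-25), 70uM AcCoA, 50uM ThioGlo1. Read Ex340/Em540 at t=0 (autofluorescence flag) and t=20 min.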
# % is scaled to controls: 0 for no effect and ±100 for the full control effect; potency is read from the fitted curve at half-maximal effect.
Structure (SMILES),Potency,"activity change, negative = inhibition"
CC(NC(=O)CN(c1ccccc1F)S(C)(=O)=O)c1ccccc1 (configuration not stated),"inconclusive: 0.891 µM [inhibitor, single point]",
CCN(CC)CCn1c2c(c(SCC(=O)Nc3nccs3)nc1=O)CCCC2,,inactive: -0.814%
Cc1ccc(Cc2nnc(SCC(=O)Nc3ccccc3)[nH]c2=O)cc1,,inactive: -16.1%
COC(=O)NCCOc1nc(N(C)C)nc(N(C)C)n1,"inconclusive: 0.891 µM [inhibitor, single point]",
N#Cc1sc2nc(C3CC3)cc(-c3ccc(Cl)cc3)c2c1N,,inactive: -19.6%
Cc1ccc(/C=C/C(=O)NCc2ccc(S(N)(=O)=O)cc2)o1,"inconclusive: 39.8 µM [inhibitor, single point]",
CCOC(=O)c1c(C)[nH]c(C)c1S(=O)(=O)N1CCCC(C(=O)NCc2cccc(C)c2)C1 (configuration not stated),,inactive: -4.54%
O=C(OCc1cc(=O)n2nc(-c3cccs3)sc2n1)c1ccc(Cl)cc1,,inactive: -8.21%
CC(=O)N(Cc1c(C)nn(-c2ccccc2)c1Cl)c1ccc(Cl)cc1,"inconclusive: 6.31 µM [inhibitor, single point]",
COc1ccc(CNC(=O)c2cc(C3CC3)nc3c2cnn3C(C)C)cc1,,inactive: -8%
COc1ccc(OC)c(C2CC(=O)c3c([nH]c(C(=O)OC(C)C)c3C)C2)c1 (configuration not stated),"inconclusive: 39.8 µM [inhibitor, single point]",
CC1=C(C(=O)OC2CCCC2)C(c2coc3ccccc3c2=O)C2=C(CCCC2=O)N1 (configuration not stated),,inactive: -3.17%
CCCC(C)NC(=O)c1cccc(Oc2ccccc2)c1 (configuration not stated),,inactive: -1.68%
COc1cc(/C=C2\SC(=S)N(NS(=O)(=O)c3ccc(C)cc3)C2=O)ccc1O,,inactive: -1%
CSc1cccc(Nc2cc(C(=O)NCCCN(C)c3ccccc3)c3ccccc3n2)c1,,inactive: -1.59%
O=[N+]([O-])c1ccc(N2CCCCC2)s1,"inconclusive: 39.8 µM [inhibitor, single point]",
CCCc1nc(NCCO)c(C#N)c2c1CCCC2,,inactive: -0.449%
C[C@H]1COc2c(N3CCN(C)CC3)c(F)cc3c(=O)c(C(=O)O)cn1c23,"inconclusive: 17.8 µM [inhibitor, partial curve]",
Cc1cccc(C(=O)NCN2CCN(c3ccccc3C#N)CC2)c1,"inconclusive: 39.8 µM [inhibitor, single point]",
CN1CCN(C(=O)c2c(O)c3cccc4c3n(c2=O)CC4)CC1,,inactive: -3.4%
COc1ccccc1NC(=O)CSc1nc(-c2ccc(C(C)(C)C)cc2)c(C#N)c(=O)[nH]1,"inconclusive: 35.5 µM [inhibitor, single point]",
COc1cccc(NC(=O)c2cc(-c3ccc(C)o3)nc3ccccc23)c1,,inactive: -14.9%

# 5 entries from above in a different format.
Structure (SMILES) | Potency | activity change, negative = inhibition
N#Cc1sc2nc(C3CC3)cc(-c3ccc(Cl)cc3)c2c1N |  | inactive: -19.6%
Cc1ccc(/C=C/C(=O)NCc2ccc(S(N)(=O)=O)cc2)o1 | inconclusive: 39.8 µM [inhibitor, single point] | 
CCOC(=O)c1c(C)[nH]c(C)c1S(=O)(=O)N1CCCC(C(=O)NCc2cccc(C)c2)C1 (configuration not stated) |  | inactive: -4.54%
O=C(OCc1cc(=O)n2nc(-c3cccs3)sc2n1)c1ccc(Cl)cc1 |  | inactive: -8.21%
CC(=O)N(Cc1c(C)nn(-c2ccccc2)c1Cl)c1ccc(Cl)cc1 | inconclusive: 6.31 µM [inhibitor, single point] | 
